These are yes or no findings as the source states them, for the method shown. In cells and extracts the contact can be indirect. Some results given as binding are weak or reduced against the parent protein; the word gives no strength.
B1: MOV10 (Moloney leukemia virus 10) RNA helicase (protein, UniProt P23249 1-1004)
chain: MPSKFSCRKLRETGQRFESFLAERGLDLETDRERLRTIYNHDFKPSYGTPAPGFSSMLYGMKIANLAFVTKTRVRFFKLDRWADVQLPEKRRIKPGSNISKQHRSLLARIFHDRAEYLHGKHGVDVEVQGPHEARDGQLLIHLDLNRKEVLTLRLRNGGSKPVTLTHLFPLCWTPQFVFYHGEQDLPCPLGPGESYELHIYCKTSIVGYFPATVLWELLGPGESGAEGAETFYIARFLAAVAHSPLAAQLKPTTPFKRPPRLTRNSVLTNRIEEGERPDRAKGYELELSLALGTYYPPILLRQLLPTLLQGPSIFTAPKEVAEIKAQLETTLKSRNYEVKLRLLLHLEELQMEHDIRHYDLDSVPMTWDPVDQNPRLLTLEVPGVAESRPSVLRGDHLFALLSSETQQDDPVTYKGFVHKVELDRVKLSFSTSLLSRFVDGLTFKVNFTFNRQPLRVQHRALELTGRWVLWPMLFPVASRGVSLLPSDVKFKLYDRSLESNPEQLQAMKHIVRGTTRPAPYIIFGPPGTGKTVTLVEAIKQVVKHLPKAHILACAPSNSGADLLCQRLRVHLPSSIYRLLAPSRDIRMVPEDIKTCCNWDAKKGEYVYPAKKHLQQYRVLITTLITASRLVSAQFPIDHFTHIFIDEAGHCMEPESLVAIAGLMDVKETGNPGGQLVLAGDPRQLGPVLRSPLALKHGLGYSLLERLLAYNSLYKKGPNGYDPQFITKLLRNYRSHPTILDIPNQLYYDGELQACADVVDRERFCRWEGLPQQGFPIIFHGVMGKDEREGNSPSFFNPEEAATVTSYLKQLLAPSSKKGKARLSPRNVGVISPYRKQVEKIRYCITKLDRELRGLDDIKDLKVGSVEEFQGQERSVILISTVRSSQSFVQLDLDFNLGFLKNPKRFNVAVTRAKALLIVVGNPLLLGHDPDWKTFLEFCKENGGYTGCPFPAKLDLQQGQDLLQGLSKLSPSTSGPRRHQNLPQEREGEGGLPLQVEPEWRNEL

Chains of the proteins cited; added tags and fusions are not shown.
UniProt Q9EPU0: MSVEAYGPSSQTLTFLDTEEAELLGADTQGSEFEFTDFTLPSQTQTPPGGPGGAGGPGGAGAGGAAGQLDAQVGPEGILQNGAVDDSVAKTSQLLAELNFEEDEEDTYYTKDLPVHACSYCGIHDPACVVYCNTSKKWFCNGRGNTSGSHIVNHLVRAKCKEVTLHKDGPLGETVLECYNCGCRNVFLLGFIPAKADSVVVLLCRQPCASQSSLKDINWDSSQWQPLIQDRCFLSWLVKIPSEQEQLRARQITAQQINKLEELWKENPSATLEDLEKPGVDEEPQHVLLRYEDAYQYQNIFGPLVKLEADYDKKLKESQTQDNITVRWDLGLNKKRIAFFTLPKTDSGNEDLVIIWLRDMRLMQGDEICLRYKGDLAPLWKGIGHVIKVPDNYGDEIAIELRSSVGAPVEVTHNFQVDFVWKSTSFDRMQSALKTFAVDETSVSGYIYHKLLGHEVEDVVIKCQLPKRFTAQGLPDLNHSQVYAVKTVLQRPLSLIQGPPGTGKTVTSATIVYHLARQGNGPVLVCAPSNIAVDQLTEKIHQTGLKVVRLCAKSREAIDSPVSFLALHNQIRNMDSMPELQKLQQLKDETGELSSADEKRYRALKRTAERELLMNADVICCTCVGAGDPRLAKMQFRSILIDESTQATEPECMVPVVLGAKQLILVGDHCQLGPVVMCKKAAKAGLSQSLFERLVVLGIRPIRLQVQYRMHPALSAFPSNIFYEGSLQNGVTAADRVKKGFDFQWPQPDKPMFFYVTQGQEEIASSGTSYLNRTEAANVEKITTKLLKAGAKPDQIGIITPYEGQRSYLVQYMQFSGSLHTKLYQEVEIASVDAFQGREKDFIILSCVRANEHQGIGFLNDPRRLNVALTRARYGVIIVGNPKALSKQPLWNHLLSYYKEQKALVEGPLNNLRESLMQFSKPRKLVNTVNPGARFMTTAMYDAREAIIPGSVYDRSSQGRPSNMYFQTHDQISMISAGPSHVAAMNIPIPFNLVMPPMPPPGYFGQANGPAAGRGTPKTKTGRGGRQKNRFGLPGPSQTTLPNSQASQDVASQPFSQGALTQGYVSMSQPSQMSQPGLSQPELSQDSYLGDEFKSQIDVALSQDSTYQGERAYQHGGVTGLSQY

Tests used:
[1] = molecular target: T1, MOV10 (Moloney leukemia virus 10) RNA helicase (mouse (endogenous in testis)) (UniProt P23249); test: co-IP; IP of mouse testis lysate (RIPA buffer) with anti-MOV10 or anti-UPF1 antibody on protein G Dynabeads, washed three times with RIPA, Western blot; normal rabbit IgG and Mov10-/- testis as controls
T1 sequence: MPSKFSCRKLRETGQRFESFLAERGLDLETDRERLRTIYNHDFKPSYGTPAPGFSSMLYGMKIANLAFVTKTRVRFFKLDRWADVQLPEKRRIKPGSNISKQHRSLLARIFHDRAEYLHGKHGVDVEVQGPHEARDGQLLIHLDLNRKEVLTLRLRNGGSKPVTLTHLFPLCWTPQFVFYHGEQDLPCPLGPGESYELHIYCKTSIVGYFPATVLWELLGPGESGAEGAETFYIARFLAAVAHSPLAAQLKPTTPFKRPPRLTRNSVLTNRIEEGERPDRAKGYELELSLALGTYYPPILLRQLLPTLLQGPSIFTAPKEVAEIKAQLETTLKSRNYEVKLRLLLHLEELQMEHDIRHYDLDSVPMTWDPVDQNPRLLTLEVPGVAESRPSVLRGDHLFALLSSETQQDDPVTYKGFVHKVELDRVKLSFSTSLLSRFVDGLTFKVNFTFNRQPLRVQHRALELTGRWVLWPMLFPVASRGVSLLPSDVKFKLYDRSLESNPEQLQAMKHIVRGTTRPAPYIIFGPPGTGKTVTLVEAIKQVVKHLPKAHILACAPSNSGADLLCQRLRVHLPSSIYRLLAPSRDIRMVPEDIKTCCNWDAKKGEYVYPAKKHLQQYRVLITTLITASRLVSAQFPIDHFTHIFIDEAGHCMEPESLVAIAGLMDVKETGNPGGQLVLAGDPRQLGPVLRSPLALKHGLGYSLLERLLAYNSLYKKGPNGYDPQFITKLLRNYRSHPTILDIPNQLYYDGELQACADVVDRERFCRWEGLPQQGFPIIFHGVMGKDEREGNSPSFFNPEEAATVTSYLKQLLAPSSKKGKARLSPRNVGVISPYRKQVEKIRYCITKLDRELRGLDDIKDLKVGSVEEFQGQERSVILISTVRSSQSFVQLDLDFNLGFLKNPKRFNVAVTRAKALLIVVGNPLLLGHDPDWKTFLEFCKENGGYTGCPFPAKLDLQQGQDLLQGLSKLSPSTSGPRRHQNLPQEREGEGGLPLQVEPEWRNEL

[2] = molecular target: UPF1 (mouse (endogenous in testis)) (UniProt Q9EPU0); test: as above

Molecule	binding [1]	binding [2]
UPF1 (from UniProt Q9EPU0 1-1124)	binds	
B1		binds

Reference: publication PMC10174503
